Measured values as given in PubChem BioAssay AID448 (National Center for Advancing Translational Sciences (NCATS), 2006).
Shown are results outside the selection of hits, which stands elsewhere. Calls of active or inactive are those of the source. Calls come from the whole dose curve.

system: Schistosoma mansoni peroxiredoxin 2 (Prx2); test: Schistosoma Mansoni Peroxiredoxins (Prx2); conditions: S. mansoni Prx2 activity coupled to TGR/GSH (TGR is thioredoxin glutathione reductase), NADPH fluorescence loss, qHTS
Text: NIH Molecular Libraries Screening Centers Network [MLSCN]
NIH Chemical Genomics Center [NCGC]
David Williams [Illinois State University]
Schistosoma mansoni, a causative agent of schistosomiasis, resides in the bloodstream of their host up to 30 years without being eliminated by the host immune attack. One proposed survival mechanism is the production of an antioxidant "firewall" that neutralizes the oxidative assault of the host's immune attack. Schistosoma mansoni peroxiredoxins (Prx) are important parasite antioxidant proteins that play a crucial role in redox balance mechanisms. […] First, the proteins are essential for the parasite survival. […] Third, the protein(s) is amenable for study at the molecular level and can be produced in bacteria in large quantities, in soluble and active form. Inhibition of Prx activity was screened in a coupled-enzyme format with reducing equivalents being transferred from NADPH to […] intermediate via thioredoxin/glutathione reductase (TGR)-catalyzed reaction, then from thioredoxin to hydrogen peroxide via Prx-catalyzed electron transfer. A decrease in the fluorescence intensity of NADPH was used to measure the enzyme activity. Purified S. mansoni TGR and Prx were provided by Professor David L. Williams, Illinois State University.
NCGC Assay Protocol Summary:
100 mM phosphate buffer, pH 7.4, 10 mM EDTA, 0.01% Tween-20.
100 uM NADPH/25 nM TGR/700 uM GSH/50 nM Prx2 mixture in columns 1, 2, 5-48. Titration of control potassium antimonyl tartrate (PAT, from 1 mM, then 1:5) pin-transferred to lower half of column 2. Column 1 and upper half of column 2 are neutral (100% activity).
Three uL of reagents were dispensed to 1536-well Greiner black plates. Compounds and controls (20 nL) were transferred via Kalypsys PinTool. […] The plate was transferred to ViewLux (Perkin-Elmer) High-throughput CCD imager where kinetic measurements (every 30 sec, for a total of 8 min) of NADPH fluorescence were taken using 365 nm excitation/450 nm emission filter set. […]
Potency is the fitted concentration of half-maximal effect.

SMILES	Potency
C[N+]1(C)CC[C@@H](OC(=O)[C@@](O)(c2ccccc2)C2CCCC2)C1	inactive: > 57 µM
CN[C@@H](C)[C@H]1CC[C@@H](N)[C@@H](O[C@@H]2[C@@H](O)[C@@H](O[C@H]3OC[C@@](C)(O)[C@@H](NC)[C@@H]3O)[C@H](N)C[C@@H]2N)O1 (tested in a mixture with another compound)	inactive: > 57 µM
CC(C)[N+]1(C)[C@@H]2CC[C@H]1CC(OC(=O)[C@@H](CO)c1ccccc1)C2 (stereo partly drawn)	inactive: > 57 µM
